Test results as given in PubChem BioAssay AID2685 (National Center for Advancing Translational Sciences (NCATS), 2010).
The list shows a part of the results. These are further read-outs of the screen, such as a control signal, another cell line or another target. No call is given for them. Compounds called inactive in the main read-out are mostly missing here. Potencies come from curve fits of mixed quality, noted in brackets.

Assay: qHTS Assay for Lipid Storage Modulators in Drosophila S3 Cells;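 for cell number change: cells counted by Cell Tracker Red CMTPX staining in the red channel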
Details: BODIPY lipid droplet fluorescence, 18-24 h; for cell number change: measured here: cell count max response, cells fed with added oleic acid
Method in brief: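 Drosophila S3 cells got compounds at several concentrations plus oleic acid (400 uM solution). Laser-scanning cytometry with 488 nm excitation read lipid droplets at 500-530 nm and cells at 575-640 nm. Percent activity was relative to 20 uM Triacsin C.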

[1] = measured here: lipid fluorescence (Fed channel) AC50, cells fed with added oleic acid
[2] = measured here: cell number channel AC50, cells fed with added oleic acid

For `O=C(COC(=O)c1ccc(O)cc1O)NC1CCS(=O)(=O)C1` (stereo unspecified), the cell number change was -22.4% and the AC50 [1] was 14.6 µM [falling, partial curve, poor fit].
For `O=C(c1cc(F)cc2c1OCOC2)N1CCN(c2ccc(F)cc2)CC1`, the cell number change was 1.32% and the AC50 [2] was 6.51 µM [falling, single point].
In the case of `Cc1ccc2nc(/N=C(\N)NC(=O)N3c4ccccc4Sc4ccccc43)nc(C)c2c1`, the cell number change is reported as 10.2% and the AC50 [1] is reported as 1.16 µM [rising, full curve, poor fit].
In the case of `O=C(CSc1nc(-c2ccccc2)c(-c2ccccc2)[nH]1)NCc1ccco1`, the cell number change is reported as -124%, the AC50 [2] is reported as 29.1 µM [falling, single point] and the AC50 [1] is reported as 5.8 µM [rising, partial curve].
In the case of `CC(C)N(CCNC(=O)c1ccc(CS(=O)(=O)c2c(Cl)cccc2Cl)o1)Cc1ccccc1`, the AC50 [1] is reported as 1.3 µM [rising, full curve].
In the case of `CC1(C)OC(=O)C(=Cc2ccc[nH]2)C(=O)O1`, the cell number change is reported as -27.6% and the AC50 [1] is reported as 0.291 µM [falling, partial curve].
In the case of `Cc1cc2oc(C(=O)NCc3ccncc3)c(C)c2cc1C`, the cell number change is reported as -70.2%, the AC50 [2] is reported as 29.1 µM [falling, single point] and the AC50 [1] is reported as 29.1 µM [falling, single point].
With `CCn1c(O)c(N=NC(=O)Cc2csc(N3CCOCC3)n2)c2ccccc21` the AC50 [2] was 0.0731 µM [rising, full curve, poor fit] and the AC50 [1] was 0.103 µM [rising, full curve, poor fit].
With `CCc1noc(C)c1C(=O)Nc1nc2ccc(F)cc2s1` the cell number change was 35% and the AC50 [2] was 5.8 µM [rising, full curve, poor fit].
For `CC1Cc2ccccc2N1C(=O)CSc1nnnn1C` (stereo unspecified), the cell number change was -15.4% and the AC50 [2] was 3.26 µM [falling, single point].
With `O=C(CCC1CCCN(C(=O)c2ccc3c(c2)OCCO3)C1)NCc1ccccc1F` (stereo unspecified) the cell number change was -57%, the AC50 [2] was 3.26 µM [falling, full curve] and the AC50 [1] was 2.91 µM [falling, full curve].
With `Cc1ccc2c(N)[nH]nc2n1` the cell number change was -0.745% and the AC50 [1] was 6.51 µM [rising, single point].
With `COc1ccc(-c2noc3c2-c2nc(C4CCCCC4)sc2CC3)cc1` the cell number change was 6.59% and the AC50 [1] was 29.1 µM [rising, single point].
For `Cn1c(CSCc2ccc(Cl)c(Cl)c2)nnc1SCC(=O)Nc1nccs1`, the cell number change was -7.65% and the AC50 [1] was 4.61 µM [rising, full curve].
In the case of `CCOC(=O)Cc1csc(NC(=O)CSc2nccn2C)n1`, the cell number change is reported as 16.2% and the AC50 [1] is reported as 11.6 µM [rising, partial curve, poor fit].
For `COc1cc(/C=C2\SC(=S)N(CCC(=O)N3CCN(C)CC3)C2=O)cc(OC)c1OC`, the cell number change was 15.1% and the AC50 [1] was 2.91 µM [falling, single point].
Work on `COC(=O)[C@@H](NC(=O)Nc1ccc2c(c1)OCCO2)C(C)C` yielded a cell number change of -7.84%.
For `CN(C(=O)CCN1C(=O)/C(=C/c2ccccc2F)SC1=S)C1CCS(=O)(=O)C1` (stereo unspecified), the cell number change was -22.8%, the AC50 [2] was 1.03 µM [falling, full curve, poor fit] and the AC50 [1] was 5.8 µM [falling, partial curve].
In the case of `CCCOC1CCCN(C(=O)c2ccc(OC)c(OC3CCN(C(C)C)CC3)c2)C1` (stereo unspecified), the cell number change is reported as -21.8% and the AC50 [1] is reported as 29.1 µM [rising, single point].
`Cc1[nH]c2ccccc2c1/C=N/NC(=O)CNC(=O)Cc1ccccc1` gave a cell number change of -23.9%.
In the case of `CCOC(=O)c1cc(S(=O)(=O)Nc2cccc(OC)c2)cn1C`, the cell number change is reported as -5.73% and the AC50 [2] is reported as 3.66 µM [rising, single point].
With `O=C1c2ccccc2CCC12N=NCC2c1ccc(Br)cc1` (stereo unspecified) the AC50 [2] was 0.146 µM [rising, full curve, poor fit].
In the case of `COC(=O)c1cc(OC)c(OC)cc1NC(=O)C(C)Sc1ccc(C)cc1` (stereo unspecified), the AC50 [2] is reported as 1.64 µM [rising, partial curve].
In the case of `Cc1ccc(O)c(-c2cc(-c3cccc(Br)c3)n[nH]2)c1`, the AC50 [2] is reported as 6.51 µM [rising, single point].
With `O=C(CCn1cnnn1)Nc1ccc(Cl)cc1Cl` the cell number change was -15.4% and the AC50 [1] was 6.51 µM [rising, single point].
In the case of `COc1ccc(S(=O)(=O)N(C)C)cc1NC(=O)COC(=O)c1nn(C)c(=O)c2ccccc12`, the cell number change is reported as 14.7%, the AC50 [2] is reported as 0.092 µM [rising, full curve, poor fit] and the AC50 [1] is reported as 5.17 µM [rising, single point].
For `CCC(=O)NCCCCNC(=O)CC`, the cell number change was -3.5% and the AC50 [1] was 29.1 µM [falling, single point].
In the case of `CC(C)C(=O)Nc1c2c(nc3c1CCC3)CCCC2`, the cell number change is reported as 25% and the AC50 [1] is reported as 0.517 µM [falling, partial curve].
For `CC(Oc1ccc(Cl)cc1)C(=O)NCCN1C(=O)S/C(=C\c2cccnc2)C1=O` (stereo unspecified), the cell number change was -7.73% and the AC50 [1] was 32.6 µM [falling, single point].
In the case of `COc1ccc(NC(=O)N[C@@H](CCSC)C(=O)O)cc1Cl`, the cell number change is reported as -63.8%, the AC50 [2] is reported as 29.1 µM [falling, single point] and the AC50 [1] is reported as 3.66 µM [falling, full curve, poor fit].
In the case of `CCc1ccc(CN(C)C(=O)c2cc(COc3ccc(OC)cc3Cl)on2)nc1`, the cell number change is reported as 8.1%, the AC50 [2] is reported as 0.355 µM [rising, full curve, poor fit] and the AC50 [1] is reported as 0.501 µM [rising, full curve, poor fit].
With `COc1cc(C(=O)NCC(=O)Nc2ccc(F)c(F)c2)ccc1OCC(=O)N1CCOCC1` the cell number change was -20.1% and the AC50 [1] was 7.31 µM [falling, partial curve, poor fit].
`CC1(C)CC(=O)C(C(O)c2cccc([N+](=O)[O-])c2)C(C)(C)N1` (stereo unspecified) gave a cell number change of 4.05%.
In the case of `COC(=O)C(CCSC)NC(=O)Cn1ncc2c(=O)oc3ccccc3c21` (stereo unspecified), the cell number change is reported as -42%, the AC50 [2] is reported as 29.1 µM [falling, single point] and the AC50 [1] is reported as 32.6 µM [falling, single point].
With `Cc1cccc(OCc2nnc(SCC(=O)OC3CCCCC3)o2)c1` the cell number change was -1.29% and the AC50 [1] was 0.116 µM [falling, full curve, poor fit].
For `CC(C)[C@H](NC(=O)[C@@H]1Cc2ccccc2CN1C(=O)OC(C)(C)C)C(=O)NCC1CCCO1` (stereo partly specified), the cell number change was -0.763% and the AC50 [1] was 29.1 µM [rising, single point].
For `C=CCNc1nc(C(=O)OCC(=O)N(Cc2ccccc2)C(C)C)cs1`, the cell number change was 10.1%, the AC50 [2] was 0.82 µM [falling, single point] and the AC50 [1] was 0.92 µM [falling, full curve, poor fit].
With `Cc1ccc(C)c(OCC(=O)O/N=C(\N)c2ccccn2)c1` the cell number change was -16.6% and the AC50 [1] was 2.31 µM [falling, partial curve, poor fit].
With `Cc1sc(NC(=O)CN(C(=O)c2ccccc2F)C2CCCC2)c(C(N)=O)c1C` the cell number change was -0.901% and the AC50 [1] was 29.1 µM [falling, single point].
Compound `CCCN(CCC)CCNC(=O)C1CCN(S(=O)(=O)c2cccc3nsnc23)CC1` has a cell number change of 1.19%.
`CCOC(=O)NC1=NCC(C)S1` (stereo unspecified) showed a cell number change of 4.09%.
For `Cc1cc2nn(-c3cccc4ccccc34)nc2cc1N`, the AC50 [1] was 0.651 µM [rising, single point].
Compound `O=C(CN(C(=O)CNC(=O)c1ccco1)c1ccc(F)cc1)NC1CCCC1` has a cell number change of -11.8%.
In the case of `O=C(O)/C=C/c1ccc(S(=O)(=O)N(CCO)CCO)cc1`, the cell number change is reported as -18.9% and the AC50 [1] is reported as 0.92 µM [falling, full curve].
In the case of `Cc1ccc(OCC(=O)NCCNC(=O)c2ccco2)cc1`, the cell number change is reported as 18.1% and the AC50 [1] is reported as 0.206 µM [rising, single point].
For `Cc1ccc(C)c(S(=O)(=O)N2CCCCC2CCNC(=O)C(=O)NCCc2ccco2)c1` (stereo unspecified), the cell number change was -58.2%, the AC50 [2] was 20.6 µM [falling, partial curve] and the AC50 [1] was 5.8 µM [falling, full curve, poor fit].
Work on `C/C(=N\NC(=O)c1cc(C)nc2ccccc12)c1ccccn1` yielded a cell number change of 11.6%.
In the case of `COc1ccc(NC(=O)Nc2ccccc2SC)cc1`, the cell number change is reported as -19% and the AC50 [1] is reported as 0.58 µM [falling, single point].
With `Cc1c(Cl)cccc1NC(=O)Nc1cc(C(C)(C)C)on1` the cell number change was -53.4%, the AC50 [2] was 13 µM [falling, partial curve] and the AC50 [1] was 14.6 µM [falling, partial curve].
For `Cc1cc(C(=O)Cn2cncn2)c(C)n1CCc1ccc(F)cc1`, the AC50 [2] was 2.91 µM [rising, single point].
For `CCCCCCN=CC1=C(O)C(C(=O)OC)C(C)(C)CC1=O` (stereo unspecified), the cell number change was -0.576% and the AC50 [1] was 1.16 µM [rising, full curve].
In the case of `COc1cc(NC(=S)NC(=O)c2ccccc2F)ccc1NC(=O)c1cccs1`, the cell number change is reported as 64.2% and the AC50 [2] is reported as 6.51 µM [rising, partial curve, poor fit].
For `CCc1ccc(C(C)NC(=O)c2ccncc2)cc1` (stereo unspecified), the cell number change was -10.4% and the AC50 [1] was 6.51 µM [falling, single point].
Compound `Cc1noc(NS(=O)(=O)c2ccc(N/C=C\C(=O)c3cccc4ccccc34)cc2)c1C` has a cell number change of -17.7%.
In the case of `NCCc1nnc(SCc2ccccc2)o1`, the cell number change is reported as -14.9%.
Compound `O=C(NCCS(=O)(=O)NCc1ccc(F)cc1)c1ccc2c(c1)OCO2` has a cell number change of -7.58%.
In the case of `Cc1ccc(C(=O)NCC(=O)OCc2nnc(-c3ccccc3)o2)cc1`, the cell number change is reported as 13.9% and the AC50 [1] is reported as 29.1 µM [rising, single point].
With `Cc1cc(=O)oc2cc(OCc3cc4c(cc3Cl)OCO4)ccc12` the AC50 [2] was 2.31 µM [falling, partial curve] and the AC50 [1] was 2.31 µM [falling, partial curve].
With `COc1ccc(/C(N)=N/OC(=O)CCC2CCCC2)cc1OC` the AC50 [1] was 7.31 µM [rising, partial curve].
In the case of `COc1ccc(N(CC(=O)N2CCN(c3ccc(Cl)cc3)CC2)S(=O)(=O)c2c(C)noc2C)cc1`, the cell number change is reported as 4.96% and the AC50 [1] is reported as 29.1 µM [rising, single point].
With `O=C(CN1C(=O)c2ccccc2C1=O)NCC(=O)OCC(=O)c1cccc([N+](=O)[O-])c1` the cell number change was -20.4% and the AC50 [1] was 29.1 µM [falling, single point].
